# Assay results published in PubChem BioAssay AID493014 (National Center for Advancing Translational Sciences (NCATS), 2011).
# Where “and” joins values, the source holds several entries; their conditions need not be identical. Identical values can stand only once. Some of the results follow. Further columns of the screen follow, without active or inactive calls. Compounds called inactive in the main read-out are mostly missing here. The note in brackets gives the kind of curve behind each potency; many fits are weak.
# Experiment: qHTS Assay to Find Inhibitors of Chronic Active B-Cell Receptor Signaling
# Conditions: ABC-DLBCL IkBa-CBG/CBR reporter, luminescence ratio (green luciferase fused to IkBa over red control in TMD8 lymphoma cells), 4 h
# Summary of the method: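 Compounds up to 46 uM were incubated four hours with TMD8 cells whose green CBG68 luciferase is fused to IkappaBalpha; red CBR luminescence normalised the signal, and concentration-effect curves were fitted to fusion, red and ratio data.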
# [1] = measured here: CBR red luminescence, cell number
# [2] = measured here: IkBa-CBG green luminescence
SMILES,AC50 [1],AC50 [2]
Cc1cc(NC(=O)c2cc(-c3cccs3)on2)no1,"35.5 µM [falling, single point]",–
Cc1ccc(-c2n[nH]c(S(C)(=O)=O)c2C#N)cc1,"35.5 µM [rising, single point]",–
CCc1ccc(CN(C)Cc2nc(COc3ccccc3)no2)nc1,"17.8 µM [rising, single point]",–
CCOc1ccccc1Nc1sc(C(=O)c2ccc(Cl)cc2)c(N)c1S(=O)(=O)c1ccccc1,"0.708 µM [rising, full curve, poor fit]",–
FC(F)(F)c1ccc(Nc2nnnc3ccccc23)cc1,"15.8 µM [rising, partial curve, poor fit]",–
CCC(C)Nc1nc2c(c(=O)n(C)c(=O)n2C)n1Cc1ccc(F)cc1 (stereo not given),"14.6 µM [falling, partial curve, poor fit]",–
Cc1ccccc1NC(=O)C(=Cc1ccc(C(=O)O)cc1)C(=O)Nc1ccccc1C,"14.1 µM [falling, partial curve, poor fit]",–
COc1ccc(N2Cc3ccc(OC)c(OC)c3C2=O)cc1,"10 µM [falling, single point]",–
CCOc1ccccc1Oc1nc(C)nc2c1oc1ccccc12,–,"20 µM [falling, single point]"
Fc1cccc(Nc2cc(-n3cccn3)ncn2)c1,"1.84 µM [falling, partial curve, poor fit]",–
CCCN=CC1=C(O)CC(c2ccccc2)CC1=O (stereo not given),"25.9 µM [falling, partial curve, poor fit]",–
CC1CC(C)CN(C(=O)c2ccc(CSc3nc4ccncc4[nH]3)cc2)C1 (stereo not given),"20.6 µM [falling, partial curve, poor fit]",–
CC(C)=CCC/C(C)=C/COc1c2occc2cc2ccc(=O)oc12,"29.1 µM [rising, single point]",–
COC(=O)c1[nH]c2ccccc2c1NC(=O)CN1CCC(C(N)=O)(N2CCCCC2)CC1,"16.4 µM [rising, partial curve, poor fit]",–
C/C(=N\NC(=O)c1cc(C)oc1C)c1ccc2ccccc2c1,"4.47 µM [falling, partial curve, poor fit]",–
O=C(NC1CCCCCCC1)C1CCC(CNc2c(N3CCCC3)c(=O)c2=O)CC1 (stereo not given),"7.31 µM [rising, partial curve]",–
O=C(Cc1cccs1)NC1CCCC1,"35.5 µM [rising, single point]",–
C#CCOc1ccc2c3c(c(=O)oc2c1)CCCC3,"15.8 µM [rising, single point]",–
O=C(Nc1nc2ccc(Cl)cc2s1)c1ccc(N2CCCCC2)c([N+](=O)[O-])c1,"11.6 µM [falling, partial curve]",–
Cc1cc(NS(=O)(=O)c2ccc(NC(=O)C(C)Oc3ccc(Cl)cc3)cc2)no1 (stereo not given),"0.112 µM [falling, full curve, poor fit]",–
Cn1c(=O)c2c(nc(N/N=C/c3ccc(OC(=O)c4ccco4)cc3)n2Cc2ccc(F)cc2)n(C)c1=O,"29.1 µM [falling, single point]",–

SMILES,AC50 [1],AC50 [2]
Cn1c(C(C#N)C2=C(Cl)C(=O)N(c3ccccc3)C2=O)nc2ccccc21 (stereo not given),"35.5 µM [falling, single point]",–
Cc1ccc(NC(=O)CSc2nnc(CNC(=O)c3ccccc3F)o2)cc1Cl,"35.5 µM [falling, single point]",–
Cc1ccc(C2C(C#N)=C(N)Oc3n[nH]c(-c4cccnc4)c32)o1 (stereo not given),"10 µM [falling, partial curve, poor fit]",–
Cc1ccc(-n2c(SCC(=O)Nc3ncc(Cl)cc3Cl)nc3ccccc32)cc1,"23.1 µM [falling, partial curve]",–
O=C(c1ccc(F)cc1)c1cc2ccccc2o1,"6.31 µM [rising, full curve]",–
COc1ccc(NC(=O)/C=C/c2ccc3c(c2)OCO3)cc1,"3.55 µM [falling, full curve, poor fit]",–
COc1ccc(/C=C/C(=O)N(Cc2cccs2)C2CCS(=O)(=O)C2)cc1 (stereo not given),"35.5 µM [rising, single point]",–
CCn1cc(C(=O)NCCCN2CCC(C)CC2)c(=O)c2cc(S(=O)(=O)N3CCCC3)ccc21,"2.06 µM [falling, partial curve, poor fit]",–
CC(=O)N1c2ccc(S(=O)(=O)N3CCC(C(=O)Nc4cc(C)cc(C)c4)CC3)cc2CC1C (stereo not given),"3.55 µM [rising, partial curve, poor fit]",–
CCOC(=O)Nc1ccc2c(CN3C(=O)NC(CC)(CC)C3=O)cc(=O)oc2c1,"14.6 µM [falling, partial curve, poor fit]",–
Cc1ccccc1CN(CC(=O)Nc1cccc([N+](=O)[O-])c1)S(=O)(=O)c1ccc(Cl)cc1,"20.6 µM [falling, single point]",–
Cc1ccc(/C=C2\SC(=S)N(CCC(=O)NNC(=O)c3ccc(O)cc3)C2=O)cc1,"6.31 µM [falling, partial curve, poor fit]",–
O=C1CC(Cc2ccccc2)C(=O)N1Cc1ccco1 (stereo not given),"35.5 µM [falling, single point]",–
COCc1cc(=O)n2[nH]c(SCc3ccccc3)nc2n1,"6.51 µM [falling, partial curve]",–
Brc1ccc(Cn2c(-c3cncs3)nc3ccccc32)cc1,"18.4 µM [falling, partial curve, poor fit]",–
CCOc1cccc(-c2c(C(=O)N/N=C/c3ccsc3)nnn2-c2nonc2N)c1,"35.5 µM [falling, single point]",–
COc1cc(NC(=O)C2CCCCC2)c2ncccc2c1,"0.517 µM [rising, full curve, poor fit]",–
O=C(N/N=C/c1ccc(N2CCOCC2)cc1)c1ccccc1OCCOc1ccccc1,"12.6 µM [falling, partial curve, poor fit]",–
COc1ccc(-c2nc3c(c(=O)[nH]c(=O)n3Cc3ccccc3)n2CCO)cc1,"12.6 µM [rising, partial curve, poor fit]",–
COc1ccccc1CCC(=O)OCc1csc(CC(=O)Nc2ccccc2C)n1,"35.5 µM [falling, single point]",–
COc1cc(C(=O)N2CCN(c3cccc(C)c3C)CC2)ccc1OCC(=O)N1CCOCC1,"13 µM [rising, partial curve, poor fit]","18.4 µM [falling, single point]"

SMILES,AC50 [1],AC50 [2]
c1cncc(-c2ccc3ncnc(NCc4ccc5c(c4)OCO5)c3c2)c1,"10.3 µM [rising, partial curve, poor fit] and 4.11 µM [rising, full curve, poor fit]","18.4 µM [falling, partial curve, poor fit] and 13 µM [falling, partial curve]"
Cc1nc2cc(NC(=O)Nc3cccc4ccccc34)ccc2n1C,"10 µM [falling, partial curve, poor fit]",–
Cc1ccc(OCC(=O)NNC(=O)C2CSC3(C)CCC(=O)N23)cc1C (stereo not given),"16.4 µM [falling, partial curve, poor fit]",–
CNS(=O)(=O)c1cccc(C(=O)OCc2cc(=O)oc3c(C)c(O)ccc23)c1,"22.4 µM [falling, single point]",–
O=C(CSc1nnc(Nc2ccccc2)s1)Nc1cccc(S(=O)(=O)N2CCCCC2)c1,"4.11 µM [falling, full curve]",–
CN(CC(=O)O)S(=O)(=O)c1cc(Cl)ccc1Cl,"2.91 µM [rising, partial curve, poor fit]",–
CC(NC(=S)Nc1ccc(S(=O)(=O)N2CCOCC2)cc1)C1CC2CCC1C2 (stereo not given),"25.9 µM [falling, single point]",–
C=CCOc1ccc(CNn2cn[nH]c2=S)cc1OC,"14.6 µM [falling, partial curve]",–
C/C(=N\Nc1ccc([N+](=O)[O-])cc1)c1ccco1,"0.184 µM [rising, full curve]",–
O=C(CSc1nc2ccccc2c(=O)n1NC(=O)Cc1ccccc1)NCCc1ccccc1,"3.16 µM [rising, partial curve, poor fit]",–
CCc1sc(NC(=O)CN2CCOCC2)nc1-c1ccccc1,"0.731 µM [falling, full curve]",–
Cc1ccc(C2NC(C(=O)O)CS2)cc1 (stereo not given),"15.8 µM [rising, single point]",–
CCN(CC)CCOc1cc2c(nn1)Oc1ccccc1N2C,"35.5 µM [rising, single point]",–
COCC(=O)N(Cc1ccc(OC)cc1)Cc1nc2ccccc2c(=O)[nH]1,"32.6 µM [falling, single point]",–
CNC(=O)c1c[nH]c2ccc(S(=O)(=O)Nc3cccc(SC)c3)cc2c1=O,"35.5 µM [falling, single point]",–
O=C(Nc1nc2c(s1)CCCC2)c1cccnc1,"8.2 µM [falling, partial curve, poor fit]",–
CCCN1C(=O)/C(=C\C=C2\N(CC)c3ccccc3C2(C)C)SC1=S,"0.562 µM [rising, full curve, poor fit]",–
O=C(Cc1ccsc1)Nc1ccc(Cl)cc1Cl,"2.24 µM [rising, full curve]",–
C/C(=N\NC(=O)c1cc2c(s1)CCC(C)C2)c1ccc[nH]1 (stereo not given),"0.411 µM [rising, full curve]",–
CCN(CC)C(=O)[C@H]1C[C@H](CC(=O)NCc2cccc(C(F)(F)F)c2)C(=O)N2CCc3c([nH]c4cc(-c5ccco5)ccc34)[C@]12C,"2.91 µM [falling, full curve, poor fit]","32.6 µM [falling, partial curve, poor fit]"
